Data on five molecules can be found in paper PMC8630191.

The chains behind the UniProt entries cited, without tags or fusion partners. Where a name states a change or a piece, a line headed by the entry shows the natural chain unless it says otherwise. A line that says so, or that is headed by a name, gives the form on record, which may keep a tag or linker. Residues count along the entry.
UniProt P62714: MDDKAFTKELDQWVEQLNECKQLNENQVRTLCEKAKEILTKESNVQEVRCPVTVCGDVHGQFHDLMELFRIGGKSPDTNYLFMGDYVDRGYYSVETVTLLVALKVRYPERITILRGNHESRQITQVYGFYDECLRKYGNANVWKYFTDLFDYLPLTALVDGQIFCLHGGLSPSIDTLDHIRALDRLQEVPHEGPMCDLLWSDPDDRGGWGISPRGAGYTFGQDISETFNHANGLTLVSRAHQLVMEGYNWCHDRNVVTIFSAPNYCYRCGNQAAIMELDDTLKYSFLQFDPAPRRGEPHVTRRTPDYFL
3xFLAG-tagged PP2Acβ ΔL mutant (Leu 309 deleted): residues 1-308 of P62714

Common to all, as to test: affinity purification with mass spectrometry; 3xFLAG-tagged catalytic subunit (WT or ΔL) transfected in FreeStyle 293F cells; FLAG M2 affinity gel, 3 h at 4 °C; lysis and wash buffer 50 mM Tris pH 7.5, 500 mM NaCl, 0.5% Triton X-100; eluted with 3XFLAG peptide; label-free quantitative LC-MS/MS on unique peptides, three replicates
Assay [1] addresses T1, 3xFLAG-tagged PP4c, wild type (human) (UniProt P60510).
T1 sequence: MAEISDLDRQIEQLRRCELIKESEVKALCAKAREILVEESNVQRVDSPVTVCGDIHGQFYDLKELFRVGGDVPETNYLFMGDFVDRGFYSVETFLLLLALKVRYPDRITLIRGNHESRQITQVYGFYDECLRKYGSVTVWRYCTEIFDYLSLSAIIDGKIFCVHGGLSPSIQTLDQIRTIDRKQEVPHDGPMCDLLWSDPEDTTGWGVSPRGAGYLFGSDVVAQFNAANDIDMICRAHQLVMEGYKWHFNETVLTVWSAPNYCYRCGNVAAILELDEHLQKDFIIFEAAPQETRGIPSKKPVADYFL

The target in assay [2] is 3xFLAG-tagged PP2Acβ ΔL mutant (Leu 309 deleted) (human) (UniProt P62714).
The target of assay [3] is 3xFLAG-tagged PP2Acβ, wild type (human) (UniProt P62714).
Assay [4] addresses T2, 3xFLAG-tagged PP6c ΔL mutant (Leu 305 deleted) (human) (UniProt O00743).
T2 sequence: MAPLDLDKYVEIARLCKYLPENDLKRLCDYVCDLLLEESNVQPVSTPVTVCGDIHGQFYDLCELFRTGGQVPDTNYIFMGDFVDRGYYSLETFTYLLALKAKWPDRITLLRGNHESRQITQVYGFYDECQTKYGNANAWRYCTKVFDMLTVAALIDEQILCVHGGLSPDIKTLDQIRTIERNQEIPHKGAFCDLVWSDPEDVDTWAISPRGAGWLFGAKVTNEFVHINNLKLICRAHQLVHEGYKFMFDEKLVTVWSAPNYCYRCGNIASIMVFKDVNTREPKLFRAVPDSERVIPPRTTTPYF

Assay [5] concerns the target T3, 3xFLAG-tagged PP6c, wild type (human) (UniProt O00743).
T3 sequence: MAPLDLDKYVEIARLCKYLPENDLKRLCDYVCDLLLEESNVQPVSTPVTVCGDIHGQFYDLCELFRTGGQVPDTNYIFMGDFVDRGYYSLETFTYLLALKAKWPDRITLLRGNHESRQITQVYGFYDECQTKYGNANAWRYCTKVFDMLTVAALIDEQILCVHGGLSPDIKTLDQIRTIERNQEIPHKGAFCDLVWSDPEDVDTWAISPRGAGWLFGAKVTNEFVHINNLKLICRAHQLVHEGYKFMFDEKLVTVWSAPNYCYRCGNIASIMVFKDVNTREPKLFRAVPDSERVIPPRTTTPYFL

No constants are given. Whether binding was seen depends on the method and setting. Binding seen in cells or lysates may run through a third protein. These calls come from enrichment with a bait or labelling near it, and not all partners need be listed. For some assays here: Where a sequence is shown, tags or fusion partners need not be part of it.

B1: PP4R4, PP4 regulatory subunit (protein, UniProt Q6NUP7 1-873)
chain: MHPPPPAAAMDFSQNSLFGYMEDLQELTIIERPVRRSLKTPEEIERLTVDEDLSDIERAVYLLSAGQDVQGTSVIANLPFLMRQNPTETLRRVLPKVREALHVAGVEMQLTAAMSFLTILQDESVSIHAYTHSFLQVILLHLEHRDTGVSNAWLETLLSVIEVLPKETLRHEILNPLVSKAQLSQTVQSRLVSCKILGKLTNKFDAHTIKREILPLVKSLCQDVEYEVRSCMCRQLENIAQGIGTELTKSVVLPELIELSRDEGSSVRLAAFETLVNLLDIFDTDDRSQTILPLVKSFCEKSFKADESILISLSFHLGKLCHGLYGIFTPDQHLRFLEFYKKLCTLGLQQENGHNENQIPPQILEQEKKYISVRKNCAYNFPAMIVFVDPKNFHMELYSTFFCLCHDPEVPVRYTIAICFYEVSKLLNSGVYLIHKELITLLQDESLEVLDALIDHLPEILELMSTGGESSVQENKLSSLPDLIPALTAAEQRAAASLKWRTHEKLLQKYACLPHVISSDQIYYRFLQRMFTIMMTNNVLPVQKAASRTLCIFLRYNRKQEQRHEVIQKLIEQLGQGKSYWNRLRFLDTCEFIIEIFSKSFFCKYFFLPAIELTHDPVANVRMKLCYLLPKVKSTLKIPADKHLLQQLEMCVRKLLCQEKDKDVLAIVKRTVLELDRMEMSMDAFQKKFYEKDLLDQEKEREELLLLEMEQLEKEKQQNDGRPMSDKMFEKKRRDTKTPTQSLPKNIPISVPGPSSVTPSTSKEIKKSKLIRSQSFNNQAFHAKYGNLEKCASKSSTTGYTTSVSGLGKTSVLSLADDSFRTRNASSVPSSFSPNTPLPSTSRGTGNSVDPKSSGSKDTQPRKATLKSRKSNP
Regarding B1, in assay [1], the binding result is on record as “binds”.

B2: PR48, PP2A regulatory subunit of the B72 family (protein, UniProt Q9Y5P8 1-575)
chain: MPPGKVLQPVLKMKVDELFLYWLSEASTQRMLQDCLRRIKAPGRDQPTPGDGEQPGAWPTAPLAAPRPSGLEPPGTPGPGPALPLGAASSPRNAPHVRGTRRSAGTRVVQTRKEEPLPPATSQSIPTFYFPRGRPQDSVNVDAVISKIESTFARFPHERATMDDMGLVAKACGCPLYWKGPLFYGAGGERTGSVSVHKFVAMWRKILQNCHDDAAKFVHLLMSPGCNYLVQEDFVPFLQDVVNTHPGLSFLKEASEFHSRYITTVIQRIFYAVNRSWSGRITCAELRRSSFLQNVALLEEEADINQLTEFFSYEHFYVIYCKFWELDTDHDLLIDADDLARHNDHALSTKMIDRIFSGAVTRGRKVQKEGKISYADFVWFLISEEDKKTPTSIEYWFRCMDLDGDGALSMFELEYFYEEQCRRLDSMAIEALPFQDCLCQMLDLVKPRTEGKITLQDLKRCKLANVFFDTFFNIEKYLDHEQKEQISLLRDGDSGGPELSDWEKYAAEEYDILVAEETAGEPWEDGFEAELSPVEQKLSALRSPLAQRPFFEAPSPLGAVDLYEYACGDEDLEPL
Consider B2, for which the binding result in assay [2] and in assay [3] was “binds” in each case.

B3: PP4R2, PP4 regulatory subunit (protein, UniProt Q9NY27 1-417)
chain: MDVERLQEALKDFEKRGKKEVCPVLDQFLCHVAKTGETMIQWSQFKGYFIFKLEKVMDDFRTSAPEPRGPPNPNVEYIPFDEMKERILKIVTGFNGIPFTIQRLCELLTDPRRNYTGTDKFLRGVEKNVMVVSCVYPSSEKNNSNSLNRMNGVMFPGNSPSYTERSNINGPGTPRPLNRPKVSLSAPMTTNGLPESTDSKEANLQQNEEKNHSDSSTSESEVSSVSPLKNKHPDEDAVEAEGHEVKRLRFDKEGEVRETASQTTSSEISSVMVGETEASSSSQDKDKDSRCTRQHCTEEDEEEDEEEEEESFMTSREMIPERKNQEKESDDALTVNEETSEENNQMEESDVSQAEKDLLHSEGSENEGPVSSSSSDCRETEELVGSNSSKTGEILSESSMENDDEATEVTDEPMEQD
Take B3: the binding entry in assay [1] is on record as “binds”.

B4: ANKRD52, Ankyrin repeat subunit of PP6 (protein, UniProt Q8NB46 1-1076)
chain: MGILSITDQPPLVQAIFSRDVEEVRSLLSQKENINVLDQERRTPLHAAAYVGDVPILQLLLMSGANVNAKDTLWLTPLHRAAASRNEKVLGLLLAHSADVNARDKLWQTPLHVAAANRATKCAEALAPLLSSLNVADRSGRSALHHAVHSGHLETVNLLLNKGASLNVCDKKERQPLHWAAFLGHLEVLKLLVARGADLGCKDRKGYGLLHTAAASGQIEVVKYLLRMGAEIDEPNAFGNTALHIACYLGQDAVAIELVNAGANVNQPNDKGFTPLHVAAVSTNGALCLELLVNNGADVNYQSKEGKSPLHMAAIHGRFTRSQILIQNGSEIDCADKFGNTPLHVAARYGHELLISTLMTNGADTARRGIHDMFPLHLAVLFGFSDCCRKLLSSGQLYSIVSSLSNEHVLSAGFDINTPDNLGRTCLHAAASGGNVECLNLLLSSGADLRRRDKFGRTPLHYAAANGSYQCAVTLVTAGAGVNEADCKGCSPLHYAAASDTYRRAEPHTPSSHDAEEDEPLKESRRKEAFFCLEFLLDNGADPSLRDRQGYTAVHYAAAYGNRQNLELLLEMSFNCLEDVESTIPVSPLHLAAYNGHCEALKTLAETLVNLDVRDHKGRTALFLATERGSTECVEVLTAHGASALIKERKRKWTPLHAAAASGHTDSLHLLIDSGERADITDVMDAYGQTPLMLAIMNGHVDCVHLLLEKGSTADAADLRGRTALHRGAVTGCEDCLAALLDHDAFVLCRDFKGRTPIHLASACGHTAVLRTLLQAALSTDPLDAGVDYSGYSPMHWASYTGHEDCLELLLEHSPFSYLEGNPFTPLHCAVINNQDSTTEMLLGALGAKIVNSRDAKGRTPLHAAAFADNVSGLRMLLQHQAEVNATDHTGRTALMTAAENGQTAAVEFLLYRGKADLTVLDENKNTALHLACSKGHEKCALMILAETQDLGLINATNSALQMPLHIAARNGLASVVQALLSHGATVLAVDEEGHTPALACAPNKDVADCLALILSTMKPFPPKDAVSPFSFSLLKNCSIAAAKTVGGCGALPHGASCPYSQERPGAIGLDGCYSE
For the molecule B4, the binding result in assay [4] and in assay [5] was “binds” in each case.

B5: PR72/PR130, PP2A regulatory subunit of the B72 family (protein, UniProt Q06190 1-1150)
chain: MAATYRLVVSTVNHYSSVVIDRRFEQAIHYCTGTCHTFTHGIDCIVVHHSVCADLLHIPVSQFKDADLNSMFLPHENGLSSAEGDYPQQAFTGIPRVKRGSTFQNTYNLKDIAGEAISFASGKIKEFSFEKLKNSNHAAYRKGRKVKSDSFNRRSVDLDLLCGHYNNDGNAPSFGLLRSSSVEEKPLSHRNSLDTNLTSMFLQNFSEEDLVTQILEKHKIDNFSSGTDIKMCLDILLKCSEDLKKCTDIIKQCIKKKSGSSISEGSGNDTISSSETVYMNVMTRLASYLKKLPFEFMQSGNNEALDLTELISNMPSLQLTPFSPVFGTEQPPKYEDVVQLSASDSGRFQTIELQNDKPNSRKMDTVQSIPNNSTNSLYNLEVNDPRTLKAVQVQSQSLTMNPLENVSSDDLMETLYIEEESDGKKALDKGQKTENGPSHELLKVNEHRAEFPEHATHLKKCPTPMQNEIGKIFEKSFVNLPKEDCKSKVSKFEEGDQRDFTNSSSQEEIDKLLMDLESFSQKMETSLREPLAKGKNSNFLNSHSQLTGQTLVDLEPKSKVSSPIEKVSPSCLTRIIETNGHKIEEEDRALLLRILESIEDFAQELVECKSSRGSLSQEKEMMQILQETLTTSSQANLSVCRSPVGDKAKDTTSAVLIQQTPEVIKIQNKPEKKPGTPLPPPATSPSSPRPLSPVPHVNNVVNAPLSINIPRFYFPEGLPDTCSNHEQTLSRIETAFMDIEEQKADIYEMGKIAKVCGCPLYWKAPMFRAAGGEKTGFVTAQSFIAMWRKLLNNHHDDASKFICLLAKPNCSSLEQEDFIPLLQDVVDTHPGLTFLKDAPEFHSRYITTVIQRIFYTVNRSWSGKITSTEIRKSNFLQTLALLEEEEDINQITDYFSYEHFYVIYCKFWELDTDHDLYISQADLSRYNDQASSSRIIERIFSGAVTRGKTIQKEGRMSYADFVWFLISEEDKRNPTSIEYWFRCMDVDGDGVLSMYELEYFYEEQCERMEAMGIEPLPFHDLLCQMLDLVKPAVDGKITLRDLKRCRMAHIFYDTFFNLEKYLDHEQRDPFAVQKDVENDGPEPSDWDRFAAEEYETLVAEESAQAQFQEGFEDYETDEPASPSEFGNKSNKILSASLPEKCGKLQSVDEE
Regarding B5, the binding result in assay [2] and in assay [3] was “binds” throughout.
